No constants are given. Whether binding was seen depends on the method and setting. In cells and extracts the contact can be indirect. Some results given as binding are weak or reduced against the parent protein; the word gives no strength.
Target: HA-tagged MICU1 (UniProt Q9BPX6)
Assay: co-IP; HA-tagged MICU1 precipitated, endogenous TMBIM5 detected by immunoblot; empty vector as control; conditions not described

Sequences of proteins named here, by UniProt entry; tags and fusion partners are left off. Residues count along the entry.
UniProt Q9BPX6, residues 34-476: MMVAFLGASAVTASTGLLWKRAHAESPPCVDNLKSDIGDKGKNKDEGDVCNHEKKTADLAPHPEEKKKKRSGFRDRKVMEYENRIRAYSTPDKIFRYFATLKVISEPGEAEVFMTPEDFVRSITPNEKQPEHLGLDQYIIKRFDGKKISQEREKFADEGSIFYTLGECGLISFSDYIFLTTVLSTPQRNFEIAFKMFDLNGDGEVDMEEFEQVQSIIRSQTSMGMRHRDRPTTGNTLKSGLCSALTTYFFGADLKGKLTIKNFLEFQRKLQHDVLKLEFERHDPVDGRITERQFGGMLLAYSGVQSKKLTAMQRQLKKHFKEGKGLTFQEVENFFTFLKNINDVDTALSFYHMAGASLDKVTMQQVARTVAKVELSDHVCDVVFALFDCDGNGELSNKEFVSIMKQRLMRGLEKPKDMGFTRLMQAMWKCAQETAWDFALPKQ

- binding: binds
B1: Transmembrane Bax-Inhibitor Motif (TMBIM)-containing protein 5 (TMBIM5), endogenous (protein, UniProt Q9H3K2 46-345)
chain: ATKTRIGIRRGRTGQELKEAALEPSMEKIFKIDQMGRWFVAGGAAVGLGALCYYGLGLSNEIGAIEKAVIWPQYVKDRIHSTYMYLAGSIGLTALSAIAISRTPVLMNFMMRGSWVTIGVTFAAMVGAGMLVRSIPYDQSPGPKHLAWLLHSGVMGAVVAPLTILGGPLLIRAAWYTAGIVGGLSTVAMCAPSEKFLNMGAPLGVGLGLVFVSSLGSMFLPPTTVAGATLYSVAMYGGLVLFSMFLLYDTQKVIKRAEVSPMYGVQKYDPINSMLSIYMDTLNIFMRVATMLATGGNRKK

Source: paper PMC12449474
